The other results are listed elsewhere or left out.
target: T1, OsSMF1 (Oryza sativa, UniProt Q6ZLB0 1-436); test: protein-binding microarray (RPBM); PBS, 2% BSA, 51.3 ng/ul salmon testes DNA, 50 uM zinc acetate, 200 nM TF, 25 C, 1 h; high values mean tight binding; settings: protein: recombinant; tags: N-terminal polyhistidine and DsRed monomer fusion (pET32a); chain copies: 2; label: CyDye5-dUTP incorporated in the synthesized complementary strand; 3' TTTTT single-stranded linker to array surface; dsDNA, one strand shown
T1 sequence: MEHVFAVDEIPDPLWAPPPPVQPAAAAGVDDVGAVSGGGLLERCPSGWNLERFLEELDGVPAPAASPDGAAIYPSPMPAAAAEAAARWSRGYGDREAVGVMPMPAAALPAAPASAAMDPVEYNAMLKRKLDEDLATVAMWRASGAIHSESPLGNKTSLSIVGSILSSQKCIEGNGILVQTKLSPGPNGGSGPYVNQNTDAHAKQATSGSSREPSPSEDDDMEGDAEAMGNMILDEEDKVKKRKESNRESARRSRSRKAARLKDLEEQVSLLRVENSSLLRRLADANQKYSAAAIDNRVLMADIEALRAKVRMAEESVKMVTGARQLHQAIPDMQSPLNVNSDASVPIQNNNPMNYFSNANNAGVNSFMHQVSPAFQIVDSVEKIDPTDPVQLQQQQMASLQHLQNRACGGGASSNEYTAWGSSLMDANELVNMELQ
Procedure, shortened: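 Transcription factors were each fused at the N-terminus to a polyhistidine tag plus DsRed and expressed in E. coli BL21-CodonPlus before Ni–NTA purification. Binding to a double-stranded custom Agilent array was carried out with 200 nM protein at 25 °C for 1 h in PBS, 2% BSA, salmon testes DNA and 50 µM zinc acetate. The binding signal is per-feature fluorescence intensity, in arbitrary units, on an Axon 4000B scanner.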

Row | Sequence | binding signal
1 | CCTAGATTGCGCCGCACCACGCCACCACGTACGCACGCGTCGGAGTCACCTAGTGCAG | 12700 fluorescence intensity (a.u.)
2 | ACGAGCAAACTTCCTCGACGCTGCCACGTCACTGGCAACGCGGAGTCACCTAGTGCAG | 27200 fluorescence intensity (a.u.)
3 | GTAAACTCATCTGAAAGGAAGAAAATTTACGATTTTGCTACGGAGTCACCTAGTGCAG | 31900 fluorescence intensity (a.u.)
4 | TGGCGGATCCGGCGGCGGGGAGCCGACGGAGACAGGGAAGCGGAGTCACCTAGTGCAG | 33900 fluorescence intensity (a.u.)
5 | GATTGTTGCTTAAGTCAGTGACACAGACAAACCCGAAGCACGGAGTCACCTAGTGCAG | 4120 fluorescence intensity (a.u.)
6 | GTCATCAATCCGCGCCTCCTCCCGTGATCTCAATCCCAACCGGAGTCACCTAGTGCAG | 31600 fluorescence intensity (a.u.)
7 | ATATACTCTACTTTATGAGTCAGGCTGTGTTTAGTTCAGTCGGAGTCACCTAGTGCAG | 3960 fluorescence intensity (a.u.)
8 | TGGCATTATATTTAAGCAGCCTTTGCTGACGAGTACTCATCGGAGTCACCTAGTGCAG | 5300 fluorescence intensity (a.u.)
9 | TCAACCGATCACGGGAGTGACACACCTCCACTATAGGTGTCGGAGTCACCTAGTGCAG | 5020 fluorescence intensity (a.u.)
10 | TATGGTTTGATTAGATTTAAGAACTTGTTTTGGTCTCTATCGGAGTCACCTAGTGCAG | 35300 fluorescence intensity (a.u.)
11 | GTATTTACAACATCATTGGCGACTGAATTGCACGATCTTTCGGAGTCACCTAGTGCAG | 3760 fluorescence intensity (a.u.)
12 | GGTCTTGCCTCCTACAAGTCCTCCTCCACGTTCAACTCAGCGGAGTCACCTAGTGCAG | 3460 fluorescence intensity (a.u.)
13 | ATTTCCGGTGGGACCGATGTGTCAGTCGCCACGTAGGACACGGAGTCACCTAGTGCAG | 16400 fluorescence intensity (a.u.)
14 | ACAACGTCGATACCTGGTGCTGCTGACGCCGTCGCCGACCCGGAGTCACCTAGTGCAG | 6000 fluorescence intensity (a.u.)
15 | AAATGCACTGCATTCGTTTCGGTGAGCTGAAAGAGCCTTACGGAGTCACCTAGTGCAG | 3250 fluorescence intensity (a.u.)
16 | AGATGGGAAATAAAGGGTGGTGACATGGCACACTGACATGCGGAGTCACCTAGTGCAG | 10800 fluorescence intensity (a.u.)
17 | CAAACCAAGAGATCGCGCTCCTCTGACGTAAAGTCAGAGACGGAGTCACCTAGTGCAG | 3950 fluorescence intensity (a.u.)
18 | TTTCGTCTGCCAACGCAAACGTGCGTGTGCACGAGTCGAGCGGAGTCACCTAGTGCAG | 4320 fluorescence intensity (a.u.)
19 | GGTAATGGGAGAGGCTGATGTGGCGTGAAATCTCTTGCGTCGGAGTCACCTAGTGCAG | 16800 fluorescence intensity (a.u.)
20 | TCATCACCTCTGACGGGCCTTTATTTAGGGGCTCGTCAGACGGAGTCACCTAGTGCAG | 3220 fluorescence intensity (a.u.)
21 | GCTGGCGTGGACGCTCCCGCGTCGCGACACGTCAGCCCGACGGAGTCACCTAGTGCAG | 24100 fluorescence intensity (a.u.)
22 | GGTTGACAGGTAGGGCCCACGATGACTCAGCAGCCACGTACGGAGTCACCTAGTGCAG | 19500 fluorescence intensity (a.u.)
23 | AGGAACCCATTGAGCTACACATGGGCTGACTCAATTGCTACGGAGTCACCTAGTGCAG | 3750 fluorescence intensity (a.u.)
24 | GCCGGGCCGTGCCGCCCGTTTGGACACCTATACCTCTGGTCGGAGTCACCTAGTGCAG | 3560 fluorescence intensity (a.u.)
25 | AGAGTTGTGGACTTGTGGTTACGTGGGAGCAAATCTAGTTCGGAGTCACCTAGTGCAG | 4000 fluorescence intensity (a.u.)
26 | TGTGCTGAGCTGTCATTTAGCCCGATCTCTCCACGTCAGACGGAGTCACCTAGTGCAG | 29500 fluorescence intensity (a.u.)
27 | CGTCGTCTGCTGATTGGCTGATCTCCACGTCAGCAGAAAGCGGAGTCACCTAGTGCAG | 29400 fluorescence intensity (a.u.)

Row | Sequence | binding signal
28 | TATCCCAATTGATTTGTAAAGGTGTTCATTTACAACACACCGGAGTCACCTAGTGCAG | 3330 fluorescence intensity (a.u.)
29 | ATTAGTGTTCCCAACCCATTCCAGCTAACACAGCCTAATGCGGAGTCACCTAGTGCAG | 3520 fluorescence intensity (a.u.)
30 | ATTTGTACATGGCCTTATGAAGTTATCCAGTCACTACACTCGGAGTCACCTAGTGCAG | 3940 fluorescence intensity (a.u.)
31 | GGTTACCTCTGACAATGACACCCCAAATCGTCATTATCCTCGGAGTCACCTAGTGCAG | 3830 fluorescence intensity (a.u.)
32 | CCCGCGTCGCATTCAACGCCACGCACACCACTCCACTCCACGGAGTCACCTAGTGCAG | 3470 fluorescence intensity (a.u.)
33 | GCCGCCACCCACCCACTCGACCGTTGCCACCGCTGCTTCCCGGAGTCACCTAGTGCAG | 3390 fluorescence intensity (a.u.)
34 | TATTGGAAAACTATGACAAGTCACAACTATAACGGCGAACCGGAGTCACCTAGTGCAG | 5210 fluorescence intensity (a.u.)
35 | TTGGTAAGCAATCTAATCCAGTCATGATCCTCGTAATTACCGGAGTCACCTAGTGCAG | 4940 fluorescence intensity (a.u.)
36 | CATAACCATGACACGACATGATTATTTCGAGCAGAGGCTGCGGAGTCACCTAGTGCAG | 6340 fluorescence intensity (a.u.)
37 | CACATGAAATTTCCTTGTTCCCTTGTGATCGTCTGATCTCCGGAGTCACCTAGTGCAG | 21100 fluorescence intensity (a.u.)
38 | CCGGTCGTCCGTCAGCATCCTCTCTTCCGTTGGTCATCCTCGGAGTCACCTAGTGCAG | 4550 fluorescence intensity (a.u.)
39 | AATATAATTATTTATACTTCATAGATTTCATGTTCTTCTGCGGAGTCACCTAGTGCAG | 3150 fluorescence intensity (a.u.)
40 | ATAACGAAAGTGCAAACCTGGCACTATTCTTTAGCACCGTCGGAGTCACCTAGTGCAG | 8730 fluorescence intensity (a.u.)
41 | ACCTCCAGCGCAACGTACGTACGTGTACCAGCGCGCCGCCCGGAGTCACCTAGTGCAG | 4180 fluorescence intensity (a.u.)
42 | GACGCTCGGGGCTTGGTCGCCGTCATCACAGGTACGGATACGGAGTCACCTAGTGCAG | 3930 fluorescence intensity (a.u.)
43 | GAAATGCCACAGCTCGCCGATGAGCTCCTCCGTGACCGTCCGGAGTCACCTAGTGCAG | 26000 fluorescence intensity (a.u.)
44 | AAGTCCTCCCACAAGTCAACCAACCAAAACCACGTCCAAACGGAGTCACCTAGTGCAG | 3420 fluorescence intensity (a.u.)
45 | AACGAGAATTCATGGAATCCAAGAAAAGAGACACGTGTTGCGGAGTCACCTAGTGCAG | 11500 fluorescence intensity (a.u.)
46 | GCGGCCACGCAGGATGACACCGTCGATGTCGAAGGCGATGCGGAGTCACCTAGTGCAG | 3830 fluorescence intensity (a.u.)
47 | CCGTCCCTCTCACTCTCCCGTGGACCGTGCGCGCTCTAGCCGGAGTCACCTAGTGCAG | 3770 fluorescence intensity (a.u.)
48 | GTAACTGCGACGCGCAAATCCCCGGTGCGATGACTCCTCCCGGAGTCACCTAGTGCAG | 3200 fluorescence intensity (a.u.)
49 | AATTGAAATCCTTCTACTTATTCCTCCAAATGCAACCTTTCGGAGTCACCTAGTGCAG | 32900 fluorescence intensity (a.u.)
50 | TTAACCTAGTATCGGATATGACAATCCTAGTACTACATATCGGAGTCACCTAGTGCAG | 4460 fluorescence intensity (a.u.)
51 | TCCCGCGCCGTCGCGCGCCAGCTGTCTCCCACTCGGGTGCCGGAGTCACCTAGTGCAG | 3480 fluorescence intensity (a.u.)
52 | TCACGTAGAACGTAGAAAAGGTAACACCGCCACGTAGTCACGGAGTCACCTAGTGCAG | 9880 fluorescence intensity (a.u.)
53 | ATGCGCCGCCGAGGAGGGGAAGCCCTAGGAAGGAAGAGAGCGGAGTCACCTAGTGCAG | 31500 fluorescence intensity (a.u.)
54 | CGATCTCTACTTCTAAACGACCCTATATATGTGGCTATATCGGAGTCACCTAGTGCAG | 3550 fluorescence intensity (a.u.)

An excerpt of these results, tab-delimited.
Row	Sequence	binding signal
12	GGTCTTGCCTCCTACAAGTCCTCCTCCACGTTCAACTCAGCGGAGTCACCTAGTGCAG	3460 fluorescence intensity (a.u.)
33	GCCGCCACCCACCCACTCGACCGTTGCCACCGCTGCTTCCCGGAGTCACCTAGTGCAG	3390 fluorescence intensity (a.u.)
35	TTGGTAAGCAATCTAATCCAGTCATGATCCTCGTAATTACCGGAGTCACCTAGTGCAG	4940 fluorescence intensity (a.u.)
53	ATGCGCCGCCGAGGAGGGGAAGCCCTAGGAAGGAAGAGAGCGGAGTCACCTAGTGCAG	31500 fluorescence intensity (a.u.)
